From the supplement of paper PMC10849652
The list shows a part of the results.

Chains of the proteins cited; added tags and fusions are not shown. Lines headed by an entry give the natural chain unless they say otherwise; changes in a name come on top.
UniProt Q0VAQ4: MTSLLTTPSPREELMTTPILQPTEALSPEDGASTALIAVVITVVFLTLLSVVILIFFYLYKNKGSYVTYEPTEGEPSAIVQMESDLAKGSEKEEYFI
UniProt P19634, whole entry, looked up: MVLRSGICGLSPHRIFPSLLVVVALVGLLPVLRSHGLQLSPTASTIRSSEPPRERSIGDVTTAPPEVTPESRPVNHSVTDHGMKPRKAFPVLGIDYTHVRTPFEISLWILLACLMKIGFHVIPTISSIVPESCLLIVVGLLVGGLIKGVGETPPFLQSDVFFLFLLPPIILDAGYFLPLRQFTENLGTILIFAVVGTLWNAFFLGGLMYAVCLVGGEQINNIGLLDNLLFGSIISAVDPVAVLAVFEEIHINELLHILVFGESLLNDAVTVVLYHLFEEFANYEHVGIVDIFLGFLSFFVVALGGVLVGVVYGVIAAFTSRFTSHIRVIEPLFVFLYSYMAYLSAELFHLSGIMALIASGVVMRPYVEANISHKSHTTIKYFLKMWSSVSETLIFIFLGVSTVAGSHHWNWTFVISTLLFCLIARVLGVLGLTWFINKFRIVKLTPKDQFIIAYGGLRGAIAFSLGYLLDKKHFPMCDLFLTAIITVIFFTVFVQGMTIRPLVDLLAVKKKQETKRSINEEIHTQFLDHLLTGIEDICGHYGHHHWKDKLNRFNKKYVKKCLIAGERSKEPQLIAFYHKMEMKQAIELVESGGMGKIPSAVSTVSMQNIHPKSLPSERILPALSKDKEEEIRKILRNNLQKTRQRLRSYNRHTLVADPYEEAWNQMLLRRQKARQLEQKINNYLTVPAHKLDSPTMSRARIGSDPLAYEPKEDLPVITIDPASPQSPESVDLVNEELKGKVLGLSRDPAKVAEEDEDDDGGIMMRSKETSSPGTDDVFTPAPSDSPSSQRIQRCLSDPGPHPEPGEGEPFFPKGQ
UniProt Q9Y5W8: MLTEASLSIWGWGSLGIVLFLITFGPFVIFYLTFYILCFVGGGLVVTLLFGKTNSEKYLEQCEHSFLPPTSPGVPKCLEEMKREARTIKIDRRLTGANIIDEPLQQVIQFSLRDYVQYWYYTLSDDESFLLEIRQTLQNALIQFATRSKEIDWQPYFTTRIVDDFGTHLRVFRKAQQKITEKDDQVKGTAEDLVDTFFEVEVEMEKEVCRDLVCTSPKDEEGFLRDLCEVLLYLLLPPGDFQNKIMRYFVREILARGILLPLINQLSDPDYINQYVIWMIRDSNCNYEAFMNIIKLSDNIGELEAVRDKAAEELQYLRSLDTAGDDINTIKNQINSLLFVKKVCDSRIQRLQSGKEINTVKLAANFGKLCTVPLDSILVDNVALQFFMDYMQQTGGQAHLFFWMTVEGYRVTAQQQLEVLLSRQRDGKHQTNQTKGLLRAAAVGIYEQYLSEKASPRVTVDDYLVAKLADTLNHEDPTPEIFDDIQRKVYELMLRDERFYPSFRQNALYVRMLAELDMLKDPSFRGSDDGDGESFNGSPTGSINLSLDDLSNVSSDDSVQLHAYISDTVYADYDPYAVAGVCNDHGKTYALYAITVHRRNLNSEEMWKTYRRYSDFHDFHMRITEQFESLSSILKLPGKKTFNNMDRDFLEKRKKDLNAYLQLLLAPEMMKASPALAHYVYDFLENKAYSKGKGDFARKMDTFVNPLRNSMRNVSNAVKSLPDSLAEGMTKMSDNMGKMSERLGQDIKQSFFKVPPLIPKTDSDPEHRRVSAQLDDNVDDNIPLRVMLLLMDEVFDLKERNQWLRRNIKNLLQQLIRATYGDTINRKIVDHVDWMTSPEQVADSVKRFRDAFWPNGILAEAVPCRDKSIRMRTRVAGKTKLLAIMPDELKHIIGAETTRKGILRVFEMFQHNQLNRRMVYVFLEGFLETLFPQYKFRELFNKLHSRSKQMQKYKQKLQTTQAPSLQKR
UniProt Q8ND04: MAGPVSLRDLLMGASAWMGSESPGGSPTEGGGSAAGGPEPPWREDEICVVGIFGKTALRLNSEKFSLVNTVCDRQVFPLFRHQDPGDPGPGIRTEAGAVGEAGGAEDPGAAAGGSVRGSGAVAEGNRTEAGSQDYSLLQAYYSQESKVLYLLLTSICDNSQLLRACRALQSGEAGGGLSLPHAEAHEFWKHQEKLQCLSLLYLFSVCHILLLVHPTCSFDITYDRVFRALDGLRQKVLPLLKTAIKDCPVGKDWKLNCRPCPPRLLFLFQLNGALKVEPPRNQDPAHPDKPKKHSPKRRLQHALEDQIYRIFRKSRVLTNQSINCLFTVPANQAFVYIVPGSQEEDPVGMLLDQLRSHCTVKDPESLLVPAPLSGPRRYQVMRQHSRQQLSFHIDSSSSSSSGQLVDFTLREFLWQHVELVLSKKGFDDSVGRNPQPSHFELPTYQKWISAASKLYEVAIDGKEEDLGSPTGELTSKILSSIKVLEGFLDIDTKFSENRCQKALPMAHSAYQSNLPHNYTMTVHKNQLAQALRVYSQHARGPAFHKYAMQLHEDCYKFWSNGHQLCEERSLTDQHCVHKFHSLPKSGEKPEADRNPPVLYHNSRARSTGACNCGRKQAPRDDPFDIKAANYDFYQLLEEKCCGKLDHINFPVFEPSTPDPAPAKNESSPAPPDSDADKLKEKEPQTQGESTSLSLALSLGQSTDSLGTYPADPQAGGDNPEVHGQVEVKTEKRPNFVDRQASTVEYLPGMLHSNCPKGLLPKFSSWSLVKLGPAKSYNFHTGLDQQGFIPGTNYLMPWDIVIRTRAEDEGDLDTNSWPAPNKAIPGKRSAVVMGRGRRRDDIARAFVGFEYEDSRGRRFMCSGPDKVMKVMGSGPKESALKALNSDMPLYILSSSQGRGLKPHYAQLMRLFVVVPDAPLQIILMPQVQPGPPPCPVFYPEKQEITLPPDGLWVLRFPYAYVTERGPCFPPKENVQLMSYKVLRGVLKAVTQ
UniProt B2RUZ4: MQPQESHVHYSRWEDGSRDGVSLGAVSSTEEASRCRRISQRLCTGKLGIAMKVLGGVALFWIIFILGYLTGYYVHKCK
UniProt Q9NRH2: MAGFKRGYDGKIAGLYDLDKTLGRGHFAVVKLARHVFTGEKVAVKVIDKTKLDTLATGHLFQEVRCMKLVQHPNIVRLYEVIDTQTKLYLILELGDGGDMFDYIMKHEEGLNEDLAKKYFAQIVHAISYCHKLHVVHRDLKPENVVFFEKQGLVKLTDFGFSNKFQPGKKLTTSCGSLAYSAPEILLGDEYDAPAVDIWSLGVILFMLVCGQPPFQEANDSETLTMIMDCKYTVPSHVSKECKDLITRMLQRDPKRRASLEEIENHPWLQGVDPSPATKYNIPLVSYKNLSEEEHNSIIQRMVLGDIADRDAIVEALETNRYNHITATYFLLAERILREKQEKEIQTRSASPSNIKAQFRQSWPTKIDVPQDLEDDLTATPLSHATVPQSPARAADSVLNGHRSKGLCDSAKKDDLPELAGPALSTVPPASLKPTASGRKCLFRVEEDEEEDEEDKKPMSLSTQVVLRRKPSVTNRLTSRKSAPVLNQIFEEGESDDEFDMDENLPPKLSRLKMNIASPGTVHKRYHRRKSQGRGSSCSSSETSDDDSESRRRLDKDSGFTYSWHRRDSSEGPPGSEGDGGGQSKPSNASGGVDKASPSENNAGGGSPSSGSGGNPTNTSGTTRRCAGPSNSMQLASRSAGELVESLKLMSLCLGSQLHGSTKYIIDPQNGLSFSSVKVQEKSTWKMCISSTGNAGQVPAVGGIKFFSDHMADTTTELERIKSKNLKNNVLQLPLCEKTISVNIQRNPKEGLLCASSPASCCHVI
UniProt Q3SY56: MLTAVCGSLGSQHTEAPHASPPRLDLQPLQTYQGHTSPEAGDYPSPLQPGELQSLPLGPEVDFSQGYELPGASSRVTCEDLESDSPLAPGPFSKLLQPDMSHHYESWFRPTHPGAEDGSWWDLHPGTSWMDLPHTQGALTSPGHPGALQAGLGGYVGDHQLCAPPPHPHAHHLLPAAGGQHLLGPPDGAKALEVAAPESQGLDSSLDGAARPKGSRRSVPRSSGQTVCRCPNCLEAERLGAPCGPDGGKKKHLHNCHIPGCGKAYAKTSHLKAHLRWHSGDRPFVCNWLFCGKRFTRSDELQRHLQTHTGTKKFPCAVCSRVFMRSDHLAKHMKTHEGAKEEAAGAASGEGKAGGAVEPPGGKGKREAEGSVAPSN
UniProt Q9Y2E8: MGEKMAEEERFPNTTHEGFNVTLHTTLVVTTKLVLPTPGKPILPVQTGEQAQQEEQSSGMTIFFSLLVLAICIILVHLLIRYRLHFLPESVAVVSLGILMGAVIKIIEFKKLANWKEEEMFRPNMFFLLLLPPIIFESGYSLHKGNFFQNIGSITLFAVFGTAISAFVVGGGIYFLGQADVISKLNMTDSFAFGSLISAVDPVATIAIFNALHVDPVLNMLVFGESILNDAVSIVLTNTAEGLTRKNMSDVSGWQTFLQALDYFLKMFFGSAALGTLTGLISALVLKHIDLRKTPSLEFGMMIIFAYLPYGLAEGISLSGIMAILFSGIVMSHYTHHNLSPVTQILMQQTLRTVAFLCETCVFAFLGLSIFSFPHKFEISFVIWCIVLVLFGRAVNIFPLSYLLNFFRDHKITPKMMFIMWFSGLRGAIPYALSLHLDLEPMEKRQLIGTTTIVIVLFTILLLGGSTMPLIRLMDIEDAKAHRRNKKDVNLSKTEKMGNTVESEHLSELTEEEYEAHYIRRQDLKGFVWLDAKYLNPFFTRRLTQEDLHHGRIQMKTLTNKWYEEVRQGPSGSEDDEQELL
UniProt Q86T20: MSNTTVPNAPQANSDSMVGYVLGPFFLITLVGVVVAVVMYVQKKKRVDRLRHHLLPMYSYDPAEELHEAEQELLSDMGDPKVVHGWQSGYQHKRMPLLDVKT
UniProt P03973: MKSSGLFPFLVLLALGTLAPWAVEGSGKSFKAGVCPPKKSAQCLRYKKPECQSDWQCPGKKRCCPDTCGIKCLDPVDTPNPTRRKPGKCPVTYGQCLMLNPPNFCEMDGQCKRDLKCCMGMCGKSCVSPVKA
UniProt Q86UD5: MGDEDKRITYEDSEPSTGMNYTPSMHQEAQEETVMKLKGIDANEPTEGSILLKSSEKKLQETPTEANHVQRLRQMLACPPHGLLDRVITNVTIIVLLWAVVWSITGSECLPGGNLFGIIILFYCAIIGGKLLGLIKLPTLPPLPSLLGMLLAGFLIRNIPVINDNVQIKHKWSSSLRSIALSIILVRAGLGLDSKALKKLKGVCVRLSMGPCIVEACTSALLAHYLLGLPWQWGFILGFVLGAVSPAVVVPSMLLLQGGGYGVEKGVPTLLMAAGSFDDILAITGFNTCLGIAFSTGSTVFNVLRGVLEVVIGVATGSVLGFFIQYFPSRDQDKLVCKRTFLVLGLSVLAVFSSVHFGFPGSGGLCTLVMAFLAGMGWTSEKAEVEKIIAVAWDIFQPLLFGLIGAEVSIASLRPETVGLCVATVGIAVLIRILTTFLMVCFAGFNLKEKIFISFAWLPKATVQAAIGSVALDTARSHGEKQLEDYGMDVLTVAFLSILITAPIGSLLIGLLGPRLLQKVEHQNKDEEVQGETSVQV
UniProt Q92484: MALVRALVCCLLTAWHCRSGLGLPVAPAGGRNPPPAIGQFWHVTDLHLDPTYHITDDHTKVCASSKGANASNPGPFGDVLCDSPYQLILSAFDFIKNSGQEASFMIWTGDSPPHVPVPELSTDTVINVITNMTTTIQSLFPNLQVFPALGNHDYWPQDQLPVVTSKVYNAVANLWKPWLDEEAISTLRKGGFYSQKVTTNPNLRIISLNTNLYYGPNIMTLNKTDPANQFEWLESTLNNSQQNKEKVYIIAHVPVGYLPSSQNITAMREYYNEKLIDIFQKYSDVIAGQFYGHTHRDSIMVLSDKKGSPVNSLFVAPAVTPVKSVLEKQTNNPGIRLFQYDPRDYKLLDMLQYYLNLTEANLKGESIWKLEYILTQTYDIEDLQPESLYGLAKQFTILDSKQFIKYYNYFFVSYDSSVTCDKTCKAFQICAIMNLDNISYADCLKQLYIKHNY
UniProt P02814: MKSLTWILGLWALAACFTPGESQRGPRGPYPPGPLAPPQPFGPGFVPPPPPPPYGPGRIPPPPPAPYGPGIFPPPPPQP
UniProt Q5VWJ9: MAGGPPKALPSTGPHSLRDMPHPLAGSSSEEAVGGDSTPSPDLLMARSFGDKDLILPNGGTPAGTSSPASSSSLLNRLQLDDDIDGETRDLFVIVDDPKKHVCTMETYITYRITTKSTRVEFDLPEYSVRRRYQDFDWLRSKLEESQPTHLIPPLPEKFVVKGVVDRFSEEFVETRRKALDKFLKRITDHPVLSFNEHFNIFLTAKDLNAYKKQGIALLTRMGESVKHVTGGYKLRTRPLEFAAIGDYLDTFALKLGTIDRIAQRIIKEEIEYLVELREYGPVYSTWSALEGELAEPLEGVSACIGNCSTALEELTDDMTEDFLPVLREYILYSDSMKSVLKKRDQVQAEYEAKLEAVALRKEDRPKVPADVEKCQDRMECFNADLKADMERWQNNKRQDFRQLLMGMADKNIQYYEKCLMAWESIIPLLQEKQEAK
UniProt Q8WVI0: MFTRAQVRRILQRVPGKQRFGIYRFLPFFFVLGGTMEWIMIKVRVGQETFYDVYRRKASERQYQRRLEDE

Columns and labels:
Experiment in all cases: log2 fold change, soluble protein after heating vs DMSO (PISA); higher = thermal stabilisation; K562 cells, 10 uM, 30 min; active = over 0.2 and 3.5 SD of the protein, either way, in both replicates (recomputed)
[1] = compound: CC1=C(C=C(C=C1)NC(=O)C2=CC(=CC=C2)C(C)(C)C#N)NC3=CC4=C(C=C3)N=CN(C4=O)C
In short: (§1)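 Soluble protein was defined as the supernatant after 21,000xg for 90 min. It came from K562 cells at 2×10^6 cells/mL given 10 μM compound for 30 min, heated in aliquots for 3 min across 48°C-58°C, pooled, and extracted in PBS with 0.5% NP-40 at 4°C, and was quantified by TMTpro 16plex LC-MS/MS with equalised channel sums. Thermal stability against control samples, from duplicates, is reported as log2 fold change.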

[2] = compound: CC1=CC=C(C=C1)SC2=C3C=C(SC3=CN=C2)C(=O)N
In short: as §1

Nexturastat A = compound: CCCCN(Cc1ccc(C(=O)NO)cc1)C(=O)Nc1ccccc1 [Nexturastat A]
In short: as §1

[3] = compound: CCCS(=O)(=O)Nc1ccc(F)c(C(=O)c2c[nH]c3ncc(Cl)cc23)c1F
In short: as §1

[4] = compound: CCCc1cc(C)[nH]c(=O)c1CNC(=O)c1cc(-c2ccnc(N3CCN(C)CC3)c2)cc2c1cnn2C(C)C
In short: as §1

barasertib = compound: CCN(CCCOc1ccc2c(Nc3cc(CC(=O)Nc4cccc(F)c4)[nH]n3)ncnc2c1)CCOP(=O)(O)O [barasertib]
In short: as §1

[5] = compound: CC[C@@H]1C(=O)N(C)c2cnc(Nc3ccc(C(=O)NC4CCN(C)CC4)cc3OC)nc2N1C1CCCC1
In short: as §1

volasertib = compound: CC[C@@H]1C(=O)N(C)c2cnc(Nc3ccc(C(=O)N[C@H]4CC[C@H](N5CCN(CC6CC6)CC5)CC4)cc3OC)nc2N1C(C)C [volasertib]
In short: as §1

[6] = compound: CC[C@H](C)N1C=C(C2=C(C=C(C=C21)C3=CN=C(C=C3)N4CCNCC4)C(=O)NCC5=C(C=C(NC5=O)C)C)C
In short: as §1

epoxomicin = compound: CC[C@H](C)[C@@H](C(=O)N[C@@H]([C@@H](C)O)C(=O)N[C@@H](CC(C)C)C(=O)[C@]1(CO1)C)NC(=O)[C@H]([C@@H](C)CC)N(C)C(=O)C [epoxomicin]
In short: as §1

rosiglitazone = compound: CN(CCOC1=CC=C(C=C1)C[C@H]2C(=O)NC(=O)S2)C3=CC=CC=N3 (racemic) [rosiglitazone]
In short: as §1

[7] = compound: CN1C2=C(C3=C1C(=O)N(N=C3)CC4=CC(=CC=C4)N)SC(=C2)S(=O)C
In short: as §1

[8] = compound: CC1=NC(=CC=C1)C2=C(N=C(N2)C(C)(C)C)C3=CC4=NC=CN=C4C=C3
In short: as §1

vemurafenib = compound: CCCS(=O)(=O)Nc1ccc(F)c(C(=O)c2c[nH]c3ncc(-c4ccc(Cl)cc4)cc23)c1F [vemurafenib]
In short: as §1

givinostat = compound: CCN(CC)Cc1ccc2cc(COC(=O)Nc3ccc(C(=O)NO)cc3)ccc2c1 [givinostat]
In short: as §1

[9] = compound: CCn1c(C(=O)N(C2CC2)C2CC2)cc2c3c(ncn3C)c(Nc3cc(C)n(C)n3)nc21
In short: as §1

[10] = compound: CCn1cc(-c2ccnc3[nH]c(-c4cccc(CN(C)C)c4)cc23)c(-c2ccc(NC(=O)N(C)C)cc2)n1
In short: as §1

[11] = compound: CN(C)CC(=O)Nc1ccc2[nH]c(=O)c3ccccc3c2c1
In short: as §1

[12] = compound: CN1CCC(CNc2ccc3ncc(-c4cccc(OC(F)(F)F)c4)n3n2)CC1
In short: as §1

[13] = compound: CC1=C(C=C(C=C1)NC(=O)C2=CC(=CC=C2)N(C)C)NC(=O)C3=CC=C(C=C3)O
In short: as §1

Measured: log2 fold change

SMAGP (UniProt Q0VAQ4)
inactive: [1] 0.078 | [2] -0.013 | Nexturastat A 0.041 | [3] 0 | [4] 0.263 | barasertib -0.095 | [5] 0.343 | volasertib 0.165 | [6] -0.045 | epoxomicin 0.206 | rosiglitazone 0.142 | [7] 0.057

SLC9A1 (UniProt P19634)
inactive: [1] 0.039 | [2] 0.006 | [8] 0.007 | Nexturastat A 0.056 | vemurafenib 0.103 | [3] -0.1 | [4] 0.041 | givinostat 0.081 | barasertib 0.004 | [5] 0.059 | volasertib -0.11 | [6] 0.001 | epoxomicin -0.016 | [9] -0.032 | [10] 0.014 | [11] -0.129 | rosiglitazone -0.011 | [7] -0.046 | [12] -0.061

SNX13 (UniProt Q9Y5W8)
inactive: [1] -0.038 | [13] -0.015 | Nexturastat A -0.029 | [4] -1.15 | givinostat 0.253 | barasertib 0.064 | epoxomicin 0.061 | [9] 0.011 | rosiglitazone 0.065 | [7] 0.049

SMG8 isoform 2 (UniProt Q8ND04)
inactive: [1] -0.074 | [13] 0.183 | [2] 0.038 | [8] -0.058 | Nexturastat A 0.227 | vemurafenib -0.168 | [3] -0.006 | givinostat 0.152 | barasertib 0.094 | [5] -0.101 | volasertib -0.317 | [6] 0.05 | epoxomicin 0 | [9] -0.053 | [10] -0.023 | [11] -0.021 | rosiglitazone -0.059 | [7] 0.197 | [12] -0.09

SMIM1 (UniProt B2RUZ4)
inactive: [1] -0.069 | [2] 0.049 | [8] -0.207 | [3] 0.057 | [4] -0.147 | givinostat -0.073 | barasertib -0.075 | [5] 0.013 | volasertib 0.297 | [6] 0.006 | [9] 0.134 | [10] -0.035 | rosiglitazone 0.077 | [7] 0.039 | [12] 0.3

SNX18 (UniProt Q96RF0)
inactive: [1] -0.068 | [8] -0.071 | Nexturastat A 0.141 | givinostat 0.053 | epoxomicin 0.08 | [9] -0.064

SOS1 (UniProt Q07889)
inactive: [1] -0.056 | [13] -0.049 | [8] -0.235 | Nexturastat A -0.007 | [4] -0.023 | givinostat 0.108 | barasertib -0.094 | [5] 0.064 | [6] 0.172 | epoxomicin -0.015 | [9] -0.032 | rosiglitazone 0.225

SNRK (UniProt Q9NRH2)
inactive: [1] -0.029 | [2] 0.066 | [8] 0.225 | [3] 0.07 | [5] -0.157 | volasertib -0.085 | [7] -0.011

SP6 (UniProt Q3SY56)
inactive: [1] -0.244 | [13] 0.104 | [2] -0.013 | Nexturastat A -0.002 | vemurafenib 0.055 | [3] -0.088 | [4] -0.026 | givinostat 0.009 | barasertib 0.026 | [5] -0.015 | volasertib 0.195 | [6] 0.054 | epoxomicin 0.096 | [9] -0.113 | [11] -0.054 | rosiglitazone -0.054 | [7] -0.153

SNRPC (UniProt Q5TAL2)
inactive: [1] -0.081 | [13] -0.03 | [2] -0.065 | Nexturastat A 0.361 | vemurafenib 0.056 | [3] 0.002 | [4] 0.118 | givinostat 0.153 | barasertib 0.104 | [5] 0.225 | volasertib 0 | [6] -0.149 | epoxomicin 0.199 | [9] -0.131 | [10] -0.155 | [11] 0.033 | rosiglitazone 0.016 | [7] -0.039 | [12] 0.12

Four neighbouring entries out of the list so far, for reference:
SMG8 isoform 2 (UniProt Q8ND04)
inactive: [1] -0.074 | [13] 0.183 | [2] 0.038 | [8] -0.058 | Nexturastat A 0.227 | vemurafenib -0.168 | [3] -0.006 | givinostat 0.152 | barasertib 0.094 | [5] -0.101 | volasertib -0.317 | [6] 0.05 | epoxomicin 0 | [9] -0.053 | [10] -0.023 | [11] -0.021 | rosiglitazone -0.059 | [7] 0.197 | [12] -0.09

SMIM1 (UniProt B2RUZ4)
inactive: [1] -0.069 | [2] 0.049 | [8] -0.207 | [3] 0.057 | [4] -0.147 | givinostat -0.073 | barasertib -0.075 | [5] 0.013 | volasertib 0.297 | [6] 0.006 | [9] 0.134 | [10] -0.035 | rosiglitazone 0.077 | [7] 0.039 | [12] 0.3

SNX18 (UniProt Q96RF0)
inactive: [1] -0.068 | [8] -0.071 | Nexturastat A 0.141 | givinostat 0.053 | epoxomicin 0.08 | [9] -0.064

SOS1 (UniProt Q07889)
inactive: [1] -0.056 | [13] -0.049 | [8] -0.235 | Nexturastat A -0.007 | [4] -0.023 | givinostat 0.108 | barasertib -0.094 | [5] 0.064 | [6] 0.172 | epoxomicin -0.015 | [9] -0.032 | rosiglitazone 0.225

The list goes on:

SLC9A8 isoform 2 (UniProt Q9Y2E8)
inactive: [1] 0.033 | [2] 0.098 | Nexturastat A -0.07 | vemurafenib 0.058 | [3] 0.005 | [4] 0.031 | givinostat -0.001 | barasertib 0.01 | [5] 0.172 | volasertib -0.122 | [6] -0.051 | epoxomicin -0.017 | [9] 0.022 | [11] 0.009 | rosiglitazone -0.007 | [7] -0.112

SORBS3 (UniProt O60504)
inactive: Nexturastat A -0.158 | givinostat -0.038 | barasertib 0.043 | [6] 0.09 | epoxomicin 0 | [9] -0.117 | [10] -0.228 | rosiglitazone 0.074 | [12] 0.038

SLX4IP (UniProt Q5VYV7)
inactive: [2] -0.18 | [3] 0.056 | volasertib -0.238

SMIM29 (UniProt Q86T20)
inactive: [1] -0.098 | givinostat 0.12 | [9] 0.066 | [7] -0.133

SNX4 (UniProt O95219)
inactive: [13] -0.062 | [10] 0.115 | [12] -0.04

SLPI (UniProt P03973)
inactive: [13] 1.74 | [8] 1.02

SLC9B2 (UniProt Q86UD5)
inactive: Nexturastat A 0.006 | vemurafenib 0.047 | epoxomicin -0.07 | [11] 0.084

SMPDL3A (UniProt Q92484)
inactive: Nexturastat A 0.049 | epoxomicin -0.069 | [7] 0.303

SMR3B (UniProt P02814)
inactive: barasertib 0.372 | [6] 0.83 | rosiglitazone -0.054

SNX30 (UniProt Q5VWJ9)
inactive: [1] -0.118 | Nexturastat A 0.35 | epoxomicin 0.088

SMIM4 (UniProt Q8WVI0)
inactive: [2] -0.09 | [8] 0.088 | Nexturastat A -0.041 | vemurafenib 0.046 | [3] 0.122 | [4] -0.051 | givinostat -0.019 | barasertib -0.064 | [5] 0.024 | volasertib -0.261 | [6] 0.029 | epoxomicin -0.125 | [9] 0.024 | [11] 0.018 | rosiglitazone 0.015 | [7] -0.053
